Assay results

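Plate-reader measure of the Venus reporter marking one vaccinia stage in infected cells (the cell line is not named here); read time unknown.
The test concentration is not given here.
Percent change in Venus reporter signal; lower (more negative) values mean stronger inhibition of that viral stage.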

Values are in %.
The controls that fix the scale are not given here.
Common to all entries: measured here: Venus reporter, other viral stage.
This is a side read-out of the assay, for part of the compounds, not drawn at random.

| # | compound | activity change (Venus) (%) |
|---|---|---|
| 1 | `Cc1ccccc1S(=O)(=O)N1C[C@H](O)COC[C@@H]2O[C@@H](CC(=O)N3CCC(Cc4ccccc4)CC3)CC[C@H]21` | -18.84 |
| 2 | `C[C@H]1CN([C@@H](C)CO)C(=O)Cc2cc(NC(=O)Nc3ccc(F)cc3)ccc2O[C@H]1CN(C)Cc1ccc(-c2ccccc2)cc1` | -27.05 |
| 3 | `CC(C)CC#Cc1ccc2c(c1)O[C@@H](CN(C)C(=O)c1ccccc1F)[C@H](C)CN([C@@H](C)CO)S2(=O)=O` | -26.56 |
| 4 | `CCC(=O)N1CC[C@@H]2[C@H]1c1cc(-c3ccc(OC)cc3)ccc1N(C)[C@H]2CO` | -36.49 |
| 5 | `COc1ccc([Si](C)(C)[C@H]2[C@H](CCO)O[C@@]3(C(=O)N(Cc4ccccc4)c4ccc(N5CCOC5=O)cc43)[C@@H]2C)cc1` | -46.01 |
| 6 | `C[C@H](CO)N1C[C@H](C)[C@@H](CN(C)Cc2ccc(Oc3ccccc3)cc2)Oc2ccc(NC(=O)C3CC3)cc2C1=O` | -41.35 |
| 7 | `Cc1ccccc1S(=O)(=O)N1[C@@H]2CNC[C@H]1C2c1ccc(-c2ccncc2)cc1` (stereo not given in full) | -38.54 |
| 8 | `C[C@H](CO)N1C[C@H](C)[C@H](CN(C)C(=O)NC2CCCCC2)OCCCC[C@H](C)Oc2ccc(NC(=O)NC3CCCCC3)cc2C1=O` | -31.95 |
| 9 | `COc1ccc(CN(C)C[C@H]2Oc3ccc(NC(=O)Nc4cccc5ccccc45)cc3C(=O)N([C@@H](C)CO)C[C@H]2C)cc1` | -35.09 |
| 10 | `C[C@@H]1CN([C@H](C)CO)S(=O)(=O)c2ccc(C#CC3CCCC3)cc2O[C@@H]1CN(C)Cc1cccnc1` | -64.8 |
| 11 | `C[C@@H]1CN([C@H](C)CO)C(=O)c2cc(NS(=O)(=O)c3ccc(Cl)cc3)ccc2O[C@@H]1CN(C)S(=O)(=O)c1ccc(Cl)cc1` | -2.827 |
| 12 | `C[C@H]1CN([C@@H](C)CO)S(=O)(=O)c2ccc(C3=CCCCC3)cc2O[C@H]1CN(C)C(=O)CC1CC1` | -36.7 |
| 13 | `C[C@@H]1CN([C@@H](C)CO)C(=O)Cc2cc(NC(=O)Nc3ccc(F)cc3)ccc2O[C@H]1CN(C)CC1CCCCC1` | -36.22 |
| 14 | `C[C@H]1CN([C@@H](C)CO)C(=O)c2cccc(NC(=O)Nc3ccc(C(F)(F)F)cc3)c2O[C@H]1CN(C)C(=O)Nc1ccc(C(F)(F)F)cc1` | -34.55 |
| 15 | `COc1ccc(CN(C)C[C@H]2OCCCC[C@H](C)Oc3ccc(NS(=O)(=O)c4ccccc4)cc3C(=O)N([C@H](C)CO)C[C@H]2C)cc1` | -46.08 |
| 16 | `C[C@H]1CCCCO[C@H](CN(C)Cc2ccc(Cl)c(Cl)c2)[C@@H](C)CN([C@@H](C)CO)C(=O)c2cc(NS(=O)(=O)c3ccccc3)ccc2O1` | -55.35 |
| 17 | `COc1ccccc1-c1ccc2c(c1)O[C@H](CN(C)C(=O)Nc1cccc(F)c1)[C@H](C)CN([C@H](C)CO)S2(=O)=O` | -37.6 |
| 18 | `C[C@H]1CN([C@@H](C)CO)C(=O)c2ccccc2-c2ccccc2CO[C@@H]1CN(C)S(=O)(=O)c1ccc(C(F)(F)F)cc1` | -32.95 |
| 19 | `C[C@H]1CN([C@@H](C)CO)S(=O)(=O)c2ccc(C#CC3CC3)cc2O[C@@H]1CN(C)Cc1ccc(F)cc1` | -45.73 |
| 20 | `COc1ccc(S(=O)(=O)Nc2ccc3c(c2)CC(=O)N([C@@H](C)CO)C[C@H](C)[C@@H](CN(C)Cc2ccc(-c4ccccc4)cc2)O3)cc1` | -40.05 |
| 21 | `C[C@H]1CCCCO[C@H](CN(C)C(=O)C2CCCCC2)[C@@H](C)CN([C@@H](C)CO)C(=O)c2cc(NC(=O)Cc3ccccc3)ccc2O1` | -28.84 |
| 22 | `C[C@H](CO)N1C[C@H](C)[C@@H](CN(C)Cc2ccc(-c3ccccc3)cc2)Oc2ccc(NS(=O)(=O)c3ccc(F)cc3)cc2C1=O` | -23.12 |
| 23 | `Cc1noc(C)c1S(=O)(=O)N(C)C[C@H]1OCCCC[C@H](C)Oc2ccc(NC(=O)C3CCCCC3)cc2C(=O)N([C@@H](C)CO)C[C@@H]1C` | -34.54 |
| 24 | `C[C@@H]1CCCCO[C@H](CN(C)C(=O)Cc2ccccc2)[C@H](C)CN([C@@H](C)CO)C(=O)c2cc(NS(=O)(=O)c3ccc(Cl)cc3)ccc2O1` | -47.13 |
| 25 | `CCNC(=O)c1cc2c(c(-c3cccc(-c4cccc(F)c4)c3)n1)[C@H](CCO)N([S@@](=O)C(C)(C)C)C2` | -25.13 |
| 26 | `Cc1ccc(S(=O)(=O)Nc2ccc3c(c2)C(=O)N([C@H](C)CO)C[C@@H](C)[C@H](CN(C)S(=O)(=O)c2ccccc2)OCCCC[C@@H](C)O3)cc1` | -49.98 |
| 27 | `C[C@@H]1CCCCO[C@@H](CN(C)CC2CCCCC2)[C@@H](C)CN([C@H](C)CO)C(=O)c2cc(NC(=O)c3ccccc3)ccc2O1` | -37.82 |
| 28 | `O=C(Nc1ccccc1)N1CCCCN2[C@H](CO)[C@@H](c3ccc(-c4ccccc4F)cc3)[C@@H]2C1` | -49.35 |
| 29 | `COc1ccc2c3c([nH]c2c1)[C@@H](CO)N(C(=O)c1ccc(F)cc1)CC31CN(S(=O)(=O)c2cccs2)C1` | -23.93 |
| 30 | `COc1ccc([Si](C)(C)[C@@H]2[C@@H](CCO)O[C@]3(C(=O)N(c4ccccc4)c4ccccc43)[C@H]2C)cc1` | -79.32 |
| 31 | `COc1ccccc1CNC(=O)C[C@H]1CC[C@H]2[C@@H](COC[C@@H](O)CN2C(=O)Nc2ccc(C(F)(F)F)cc2)O1` | -27.37 |
| 32 | `C[C@H](CO)N1C[C@H](C)[C@H](CN(C)Cc2ccc3c(c2)OCO3)OCCCC[C@H](C)Oc2ccc(NC(=O)Nc3ccccc3)cc2C1=O` | -46.68 |
| 33 | `C[C@H]1CCCCO[C@@H](CN(C)C(=O)NC2CCCCC2)[C@@H](C)CN([C@@H](C)CO)C(=O)c2cc(NS(=O)(=O)c3ccccc3)ccc2O1` | -39.51 |
| 34 | `C[C@@H]1CN([C@H](C)CO)C(=O)c2cc(NS(=O)(=O)c3ccc(F)cc3)ccc2O[C@@H](C)CCCCO[C@@H]1CN(C)C(=O)NC1CCCCC1` | -44.18 |
| 35 | `COc1ccc(CN(C)C[C@@H]2OCCCC[C@H](C)Oc3ccc(NS(=O)(=O)c4ccc(Cl)cc4)cc3C(=O)N([C@@H](C)CO)C[C@H]2C)cc1` | -68.84 |
| 36 | `CCC(=O)N1CCCCN2[C@H](CO)[C@@H](c3ccc(/C=C/c4ccccc4)cc3)[C@H]2C1` | -49.9 |
| 37 | `C[C@@H]1CN([C@H](C)CO)C(=O)c2cc(C#Cc3ccccc3F)cnc2O[C@@H]1CN(C)C(=O)C1CCCCC1` | -35 |
| 38 | `COc1ccc(-c2ccc(C3[C@@H]4CN(Cc5cc(OC)cc(OC)c5)C[C@H]3N4)cc2)cc1` (stereo not given in full) | -29.78 |
| 39 | `Cc1ccc(-c2cnc3c(c2)C(=O)N([C@H](C)CO)C[C@H](C)[C@@H](CN(C)Cc2ccccc2F)O3)cc1` | -43.75 |
| 40 | `O=C(NC1CCCCC1)N1CC(=O)N2[C@@H](CO)[C@H](c3ccc(/C=C/c4ccccc4)cc3)[C@@H]2C1` | -32.1 |
| 41 | `CC(C)CC#Cc1ccc2c(c1)O[C@H](CN(C)Cc1cccc(F)c1)[C@H](C)CN([C@@H](C)CO)S2(=O)=O` | -29.79 |
| 42 | `CN(C)Cc1cn(CC[C@@H]2CC[C@@H](NS(=O)(=O)c3ccc(-c4ccccc4)cc3)[C@H](CO)O2)nn1` | -25.03 |
| 43 | `Cc1noc(C)c1S(=O)(=O)Nc1ccc2c(c1)C(=O)N([C@H](C)CO)C[C@@H](C)[C@H](CN(C)Cc1ccc3c(c1)OCO3)OCCCC[C@@H](C)O2` | -31.46 |
| 44 | `CC(C)CC#Cc1cnc2c(c1)C(=O)N([C@@H](C)CO)C[C@@H](C)[C@@H](CN(C)Cc1cccc(F)c1)O2` | -29.61 |
| 45 | `C[C@H](CO)N1C[C@H](C)[C@H](CN(C)Cc2ccc(Cl)c(Cl)c2)Oc2ccc(NC(=O)NC3CCCCC3)cc2CC1=O` | -23.79 |
| 46 | `C[C@@H](NC(=O)N(C)C[C@@H]1OCc2ccccc2-c2c(n(C)c3ccccc23)C(=O)N([C@@H](C)CO)C[C@@H]1C)c1ccccc1` | -52.04 |
| 47 | `Cc1ccc(S(=O)(=O)Nc2ccc3c(c2)C(=O)N([C@H](C)CO)C[C@@H](C)[C@H](CN(C)S(=O)(=O)c2ccccc2)OCCCC[C@H](C)O3)cc1` | -43.05 |
| 48 | `C[C@@H]1CN([C@@H](C)CO)S(=O)(=O)c2ccc(C#CCC3CCCC3)cc2O[C@H]1CN(C)C` | -49.62 |

The last 4 entries again:

| compound | activity change (Venus) (%) |
|---|---|
| `C[C@H](CO)N1C[C@H](C)[C@H](CN(C)Cc2ccc(Cl)c(Cl)c2)Oc2ccc(NC(=O)NC3CCCCC3)cc2CC1=O` | -23.79 |
| `C[C@@H](NC(=O)N(C)C[C@@H]1OCc2ccccc2-c2c(n(C)c3ccccc23)C(=O)N([C@@H](C)CO)C[C@@H]1C)c1ccccc1` | -52.04 |
| `Cc1ccc(S(=O)(=O)Nc2ccc3c(c2)C(=O)N([C@H](C)CO)C[C@@H](C)[C@H](CN(C)S(=O)(=O)c2ccccc2)OCCCC[C@H](C)O3)cc1` | -43.05 |
| `C[C@@H]1CN([C@@H](C)CO)S(=O)(=O)c2ccc(C#CCC3CCCC3)cc2O[C@H]1CN(C)C` | -49.62 |

The results are deposited in PubChem (AID1053133; Broad Institute, 2014).